The target of the assay is T1, HA-IKKβ (UniProt O14920).
T1 sequence: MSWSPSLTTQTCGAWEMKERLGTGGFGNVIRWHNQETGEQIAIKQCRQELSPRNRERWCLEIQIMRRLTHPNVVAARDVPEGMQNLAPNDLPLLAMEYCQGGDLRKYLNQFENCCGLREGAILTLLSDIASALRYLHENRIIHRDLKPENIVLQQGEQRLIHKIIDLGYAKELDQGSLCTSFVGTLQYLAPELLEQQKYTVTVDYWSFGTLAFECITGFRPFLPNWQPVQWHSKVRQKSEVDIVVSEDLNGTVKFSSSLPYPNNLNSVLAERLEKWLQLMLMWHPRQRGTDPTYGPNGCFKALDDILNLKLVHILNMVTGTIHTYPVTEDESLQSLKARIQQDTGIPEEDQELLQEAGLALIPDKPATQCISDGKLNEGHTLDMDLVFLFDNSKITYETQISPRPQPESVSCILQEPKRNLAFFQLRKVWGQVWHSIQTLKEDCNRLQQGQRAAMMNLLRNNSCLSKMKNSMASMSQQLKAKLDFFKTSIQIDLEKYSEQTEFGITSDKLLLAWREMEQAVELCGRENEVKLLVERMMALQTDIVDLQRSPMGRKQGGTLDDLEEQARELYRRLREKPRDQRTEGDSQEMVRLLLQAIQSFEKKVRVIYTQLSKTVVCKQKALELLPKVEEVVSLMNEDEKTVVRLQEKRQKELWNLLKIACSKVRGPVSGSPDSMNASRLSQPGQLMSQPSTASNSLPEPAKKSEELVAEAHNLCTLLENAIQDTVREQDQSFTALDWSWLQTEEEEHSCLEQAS
The assay can be described thus: co-IP.

Amino acid sequences for entries named in this document (tags omitted).
UniProt P19474: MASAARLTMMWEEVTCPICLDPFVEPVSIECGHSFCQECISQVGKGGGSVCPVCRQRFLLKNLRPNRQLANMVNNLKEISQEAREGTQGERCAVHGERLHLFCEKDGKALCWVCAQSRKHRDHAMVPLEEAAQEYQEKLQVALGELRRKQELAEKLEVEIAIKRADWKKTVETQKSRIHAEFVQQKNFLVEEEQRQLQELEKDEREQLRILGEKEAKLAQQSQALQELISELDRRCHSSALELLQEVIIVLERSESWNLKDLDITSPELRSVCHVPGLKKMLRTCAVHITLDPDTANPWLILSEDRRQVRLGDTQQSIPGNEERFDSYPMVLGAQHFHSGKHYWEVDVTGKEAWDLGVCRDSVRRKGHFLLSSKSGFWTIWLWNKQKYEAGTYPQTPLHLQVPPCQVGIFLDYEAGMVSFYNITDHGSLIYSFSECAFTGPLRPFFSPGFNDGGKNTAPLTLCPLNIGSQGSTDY

This note sets out measurements from publication PMC11209375.

No constants are given. Whether binding was seen depends on the method and setting. In cells and extracts the contact can be indirect. Some results given as binding are weak or reduced against the parent protein; the word gives no strength. Sequences can lack the tags named with a protein.

With “Flag-TRIM21 (E3 ubiquitin ligase TRIM21) (from UniProt P19474 1-475) (enzyme)”, the binding result is “binds”.
